From PubChem BioAssay AID248 (DTP/NCI, 2004)
The list does not hold the whole screen: it gathers some chemical classes. Not every dose and run of a compound is shown. T/C gives the treated animals as a percentage of the vehicle group. Some doses have a count of surviving animals in place of a T/C: the source files T/C as zero there, which appears to mark a toxic dose or a test without result, not a measured value. Some doses without a T/C left all or most animals alive at the check, yet need not have been tolerated: the source hardly ever lists a survival T/C far under the control, and the zero likely stands for such cases as well. Counts of survivors are from the toxicity check (mostly the fifth day) where no day follows; animals may have died later. Schedule codes are those of the source, taken here to give the interval after Q, in days (D) or hours (H), and the number of doses after X. Some schedules carry Z or #; the key to these is not given. Where survival is the endpoint, this PubChem deposit counts one and a half times the control or more as active, and values a quarter to a half above the control carry no call in these data; other NCI protocols may use other cut-offs. Some entries were tested several times; their values stand side by side, smallest first. Some T/C values are followed by the survivors on the day toxicity was checked, most often the fifth; without a count or a note in brackets, all were alive then.

Test system: L1210 leukemia ip in BDF1 mice, survival T/C
Experiment: NCI In Vivo Anticancer Drug Screen. Data for tumor model L1210 Leukemia (intraperitoneal) in B6D2F1 (BDF1) mice
Details: T/C endpoint: mean survival time, vehicle: saline, higher T/C = longer survival
[1] = dose: 160.0 mg/kg/injection, schedule: Q01DX001 (ip)
[2] = dose: 160.0 mg/kg/injection, schedule: Q01DX Z (oral)
[3] = dose: 280.0 mg/kg/injection, schedule: Q01DX001 (ip)

OC(CNCCCl)C(O)C(O)C(O)CNCCCl (configuration not stated)
T/C (dose: 80.0 mg/kg/injection, schedule: Q01DX001 (oral)): 100 % of control
T/C (dose: 80.0 mg/kg/injection, schedule: Q01DX009 (ip)): 90 % of control
T/C (dose: 80.0 mg/kg/injection, schedule: Q01DX009 (oral)): 109 % of control
T/C (dose: 80.0 mg/kg/injection, schedule: Q01DX Z (oral)): 105 and 117 % of control
T/C (dose: 80.0 mg/kg/injection, schedule: Q03HX008 (ip)): 132 % of control
T/C (dose: 80.0 mg/kg/injection, schedule: Q03HX024 (ip)): 160 % of control
T/C (dose: 80.0 mg/kg/injection, schedule: Q04DX003 (ip)): 150 % of control
T/C (dose: 80.0 mg/kg/injection, schedule: Q## X002 (ip)): 170 % of control
T/C (dose: 80.0 mg/kg/injection, schedule: Q## X003 (ip)): 167 % of control
T/C (dose: 80.0 mg/kg/injection, schedule: Q## X008 (ip)): 138 % of control
T/C (dose: 80.0 mg/kg/injection, schedule: Q## X016 (ip)): 140 % of control
T/C (dose: 80.0 mg/kg/injection, schedule: Q## X024 (ip)): 167 % of control
survivor count (dose: 90.0 mg/kg/injection, schedule: Q01DX006 (iv)): 6 of 6
survivor count (dose: 90.0 mg/kg/injection, schedule: Q01DX Z (im)): 6 of 6
survivor count (dose: 90.0 mg/kg/injection, schedule: Q01DX Z (ip)): 5 of 6
survivor count (dose: 90.0 mg/kg/injection, schedule: Q01DX Z (sc)): 6 of 6
survivor count (dose: 100.0 mg/kg/injection, schedule: Q01DX Z (ip)): 4 of 6
T/C (dose: 120.0 mg/kg/injection, schedule: Q01DX001 (ip), evaluated on day 60): 130 % of control
T/C (dose: 120.0 mg/kg/injection, schedule: Q01DX001 (ip), run until all animals had died): 138 % of control
T/C (dose: 120.0 mg/kg/injection, schedule: Q01DX Z (oral)): 105 % of control
survivor count (dose: 120.0 mg/kg/injection, schedule: Q03DX Z (ip)): 6 of 6
T/C (dose: 120.0 mg/kg/injection, schedule: Q03HX008 (ip)): 141 % of control
T/C (dose: 120.0 mg/kg/injection, schedule: Q04DX003 (ip)): 121 % of control
survivor count (dose: 135.0 mg/kg/injection, schedule: Q01DX006 (iv)): 3 of 6
survivor count (dose: 135.0 mg/kg/injection, schedule: Q01DX Z (im)): 1 of 6
survivor count (dose: 135.0 mg/kg/injection, schedule: Q01DX Z (ip)): 4 of 6
survivor count (dose: 135.0 mg/kg/injection, schedule: Q01DX Z (sc)): 3 of 6
T/C (dose: 140.0 mg/kg/injection, schedule: Q01DX001 (ip)): 96 and 144 % of control
T/C (dose: 140.0 mg/kg/injection, schedule: Q07DX Z (ip)): 90 % of control [5 of 6 alive]
T/C [1]: 103 % of control [4 of 6 alive]
survivor count [1]: 3 of 6
T/C (dose: 160.0 mg/kg/injection, schedule: Q01DX001 (oral)): 103 % of control
T/C (dose: 160.0 mg/kg/injection, schedule: Q01DX009 (oral)): 107 % of control
T/C [2]: 116 % of control
survivor count [2]: 6 of 6
T/C (dose: 180.0 mg/kg/injection, schedule: Q01DX001 (ip)): 108 % of control [7 of 10 alive]
T/C (dose: 180.0 mg/kg/injection, schedule: Q01DX Z (oral)): 89 % of control
T/C (dose: 180.0 mg/kg/injection, schedule: Q03HX008 (ip)): 143 % of control
T/C (dose: 180.0 mg/kg/injection, schedule: Q04DX003 (ip)): 101 % of control [8 of 10 alive]
survivor count (dose: 240.0 mg/kg/injection, schedule: Q01DX Z (oral)): 6 of 6
survivor count (dose: 270.0 mg/kg/injection, schedule: Q01DX Z (oral)): 6 of 6
T/C [3]: 97 and 101 % of control
survivor count [3]: 0 of 6
survivor count (dose: 280.0 mg/kg/injection, schedule: Q07DX Z (ip)): 2 of 6
survivor count (dose: 320.0 mg/kg/injection, schedule: Q01DX001 (ip)): 0 of 6
T/C (dose: 320.0 mg/kg/injection, schedule: Q01DX001 (oral)): 108 % of control
survivor count (dose: 320.0 mg/kg/injection, schedule: Q01DX009 (oral)): 6 of 6
survivor count (dose: 360.0 mg/kg/injection, schedule: Q01DX Z (oral)): 5 of 6
survivor count (dose: 420.0 mg/kg/injection, schedule: Q01DX001 (ip)): 6 of 6
survivor count (dose: 630.0 mg/kg/injection, schedule: Q01DX001 (ip)): 6 of 6
survivor count (dose: 640.0 mg/kg/injection, schedule: Q01DX001 (ip)): 0 of 6
T/C (dose: 640.0 mg/kg/injection, schedule: Q01DX001 (oral)): 101 % of control
